Data as given in PubChem BioAssay AID1259424 (University of Nebraska Medical Center, 2018)
Shown is a random part of about 14,000 deposited reagents. 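Higher correlation or smaller distance means closer resemblance to KSR1 loss; control wells, including KSR1 knockdowns, recur on many plates.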 The record does not give: the time to read-out.

Screen: 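Seek colon cancer survival genes behaving like KSR1, using a six-gene signature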 (primary screen)
Cells: human HCT116 colon cancer cells
Knock-down reagent: siRNA pool against human genes, 50 nM
Read-out: 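Six signature mRNAs by branched-DNA multiplex assay, scaled to two housekeeping genes and non-targeting median, log2; matched to mean KSR1 knockdown profile by Pearson correlation and euclidean distance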
Scale: mean correlation with KSR1 profile and KSR1 correlation: higher = expression change more like KSR1 knockdown; mean distance from KSR1 profile: higher = expression change less like KSR1 knockdown

Target gene | mean correlation with KSR1 profile | mean distance from KSR1 profile | KSR1 correlation, replicate 1 | KSR1 correlation, replicate 2 | KSR1 correlation, replicate 3
TPD52L1 | 0.551 | 1.2 | 0.392 | 0.706 | 0.539
DPCD | 0.00926 | 2.15 | -0.0164 | 0.146 | -0.0869
HARS1 | 0.502 | 0.827 | 0.272 | 0.675 | 0.413
KCNC1 | -0.255 | 2.23 | -0.359 | -0.315 | -0.0657
METTL26 | 0.416 | 2.34 | 0.215 | 0.375 | 0.517
ADH4 | -0.34 | 1.75 | -0.347 | -0.193 | -0.353
PPP1R9A | 0.468 | 1.59 | 0.347 | 0.448 | 0.0909
IFIT2 | -0.335 | 5.32 | -0.423 | -0.332 | -0.389
CPSF3 | -0.265 | 3.78 | 0.0553 | -0.427 | -0.24
ZNF229 | 0.218 | 2.88 | 0.318 | -0.0113 | 0.401
DEF6 | 0.194 | 0.902 | 0.444 | -0.0438 | 0.232
HK2 | 0.144 | 4.7 | 0.199 | -0.414 | 0.207
KLK7 | 0.0648 | 1.52 | -0.101 | 0.348 | -0.0108
TOMM70 | -0.477 | 1.81 | -0.606 | -0.675 | 0.522
STRA6 | -0.144 | 1.34 | 0.0231 | -0.365 | -0.185
FBXO46 | -0.433 | 1.12 | -0.427 | -0.0912 | -0.566
CAPZA1 | 0.23 | 1.68 | 0.26 | 0.557 | -0.178
NAA25 | 0.174 | 2.18 | 0.204 | 0.136 | -0.13
PKD1L1-AS1 | 0.13 | 2.06 | 0.235 | -0.204 | 0.0667
ADD1 | -0.425 | 2.61 | -0.333 | -0.502 | -0.402
HAO2 | 0.436 | 2.66 | 0.558 | 0.362 | 0.355
PFDN4 | 0.355 | 1.23 | 0.619 | 0.492 | -0.24
TBXA2R | -0.253 | 4.72 | -0.234 | -0.123 | -0.291

9 of these entries in another layout.
IFIT2
- mean correlation with KSR1 profile: -0.335
- mean distance from KSR1 profile: 5.32
- KSR1 correlation, replicate 1: -0.423
- KSR1 correlation, replicate 2: -0.332
- KSR1 correlation, replicate 3: -0.389

CPSF3
- mean correlation with KSR1 profile: -0.265
- mean distance from KSR1 profile: 3.78
- KSR1 correlation, replicate 1: 0.0553
- KSR1 correlation, replicate 2: -0.427
- KSR1 correlation, replicate 3: -0.24

ZNF229
- mean correlation with KSR1 profile: 0.218
- mean distance from KSR1 profile: 2.88
- KSR1 correlation, replicate 1: 0.318
- KSR1 correlation, replicate 2: -0.0113
- KSR1 correlation, replicate 3: 0.401

DEF6
- mean correlation with KSR1 profile: 0.194
- mean distance from KSR1 profile: 0.902
- KSR1 correlation, replicate 1: 0.444
- KSR1 correlation, replicate 2: -0.0438
- KSR1 correlation, replicate 3: 0.232

HK2
- mean correlation with KSR1 profile: 0.144
- mean distance from KSR1 profile: 4.7
- KSR1 correlation, replicate 1: 0.199
- KSR1 correlation, replicate 2: -0.414
- KSR1 correlation, replicate 3: 0.207

KLK7
- mean correlation with KSR1 profile: 0.0648
- mean distance from KSR1 profile: 1.52
- KSR1 correlation, replicate 1: -0.101
- KSR1 correlation, replicate 2: 0.348
- KSR1 correlation, replicate 3: -0.0108

TOMM70
- mean correlation with KSR1 profile: -0.477
- mean distance from KSR1 profile: 1.81
- KSR1 correlation, replicate 1: -0.606
- KSR1 correlation, replicate 2: -0.675
- KSR1 correlation, replicate 3: 0.522

STRA6
- mean correlation with KSR1 profile: -0.144
- mean distance from KSR1 profile: 1.34
- KSR1 correlation, replicate 1: 0.0231
- KSR1 correlation, replicate 2: -0.365
- KSR1 correlation, replicate 3: -0.185

FBXO46
- mean correlation with KSR1 profile: -0.433
- mean distance from KSR1 profile: 1.12
- KSR1 correlation, replicate 1: -0.427
- KSR1 correlation, replicate 2: -0.0912
- KSR1 correlation, replicate 3: -0.566

The list goes on.
Target gene | mean correlation with KSR1 profile | mean distance from KSR1 profile | KSR1 correlation, replicate 1 | KSR1 correlation, replicate 2 | KSR1 correlation, replicate 3
ISOC1 | 0.172 | 1.27 | 0.253 | -0.00134 | 0.368
DYNC2I1 | -0.348 | 1.94 | -0.147 | -0.464 | -0.313
PRR16 | -0.145 | 3.32 | -0.22 | -0.125 | -0.152
ILKAP | -0.353 | 2.05 | -0.0743 | -0.194 | -0.73
MAST4 | -0.384 | 1.75 | 0.00789 | -0.315 | -0.881
MTMR1 | 0.327 | 1.33 | 0.107 | 0.128 | 0.664
NEMP1 | -0.751 | 2.23 | -0.859 | -0.651 | -0.596
MYO10 | 0.128 | 1.92 | 0.131 | -0.181 | -0.0898
GALK2 | 0.32 | 2.63 | 0.28 | 0.387 | 0.0411
MUC3A | -0.603 | 2 | -0.615 | -0.583 | -0.308
TMEM208 | -0.693 | 2.37 | -0.767 | -0.722 | -0.718
SULT1A2 | -0.243 | 1.5 | -0.341 | -0.136 | 0.129
OXCT2 | -0.511 | 1.37 | -0.553 | -0.531 | -0.355
HMMR | 0.669 | 1.12 | 0.701 | 0.641 | 0.711
KCNA10 | -0.181 | 1.74 | -0.113 | -0.348 | 0.00952
IL18 | 0.212 | 1.23 | -0.0479 | 0.205 | 0.253
IBSP | 0.474 | 2.7 | 0.538 | 0.574 | 0.481
LHB | 0.351 | 2.69 | 0.336 | 0.359 | 0.364
RAP1GAP | -0.13 | 2.38 | -0.102 | 0.0973 | -0.342
KCNJ8 | 0.686 | 0.764 | 0.585 | 0.762 | 0.582
HYOU1 | 0.205 | 2.16 | 0.422 | 0.0837 | 0.214
AAGAB | 0.569 | 1.6 | 0.709 | 0.737 | -0.662
IFNA17 | 0.19 | 2.01 | 0.249 | 0.102 | 0.178
GIMAP2 | 0.399 | 1.33 | 0.599 | 0.349 | 0.281
ADAM10 | -0.656 | 2.81 | -0.657 | -0.593 | -0.712
ADD2 | 0.335 | 2.08 | 0.217 | 0.233 | 0.489
HAPLN2 | -0.256 | 1.63 | -0.27 | -0.516 | -0.155
MMP26 | -0.297 | 2.56 | -0.242 | -0.409 | -0.226
PLA2G12B | 0.893 | 2.72 | 0.819 | 0.83 | 0.332
F9 | -0.1 | 1.78 | -0.0866 | -0.22 | -0.0744
TAS2R13 | 0.892 | 1.01 | 0.876 | 0.707 | 0.978
TLE3 | 0.57 | 3.56 | 0.628 | 0.577 | 0.385
LOC81787 (retired record) | 0.788 | 1.98 | 0.808 | 0.349 | 0.074
CAAP1 | 0.679 | 2.31 | 0.657 | 0.774 | 0.621
CCL8 | -0.372 | 1.63 | -0.218 | -0.586 | -0.319
ZSWIM8 | 0.169 | 1.66 | 0.224 | 0.0727 | 0.23
GRHPR | 0.536 | 1.41 | 0.632 | 0.317 | 0.58
SPINT2 | -0.162 | 1.71 | -0.0814 | -0.106 | -0.059
PAK6 | -0.203 | 1.79 | 0.458 | -0.193 | -0.463
SERP1 | 0.32 | 1.88 | 0.257 | 0.149 | -0.364
